# Values of other authors, collected in PMC6640931 (ACS Omega, 2017).
# Conditions: cited from earlier work
smiles,measurement,value
COc1ccc2cc(C(C)C(=O)[O-])ccc2c1.C[N+](C)(C)CCO (stereo not shown) [choline naproxen],water solubility of choline salt relative to neutral form,6700 times
